# Data from PubChem BioAssay AID2685 (National Center for Advancing Translational Sciences (NCATS), 2010).
# The other results are listed elsewhere or left out. These are further read-outs of the screen, such as a control signal, another cell line or another target. No call is given for them. The list favours compounds with an active or inconclusive main result. Words in brackets tell the shape of the fitted curve; partial curves, single points and poor fits give uncertain potencies.
# Experiment: qHTS Assay for Lipid Storage Modulators in Drosophila S3 Cells;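 as to cell number change: cells counted by Cell Tracker Red CMTPX staining in the red channel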
# Conditions: BODIPY lipid droplet fluorescence, 18-24 h; for cell number change: measured here: cell count max response, cells fed with added oleic acid
# In short: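 Drosophila S3 cells got compounds at several concentrations plus oleic acid (400 uM solution). Laser-scanning cytometry with 488 nm excitation read lipid droplets at 500-530 nm and cells at 575-640 nm. Percent activity was relative to 20 uM Triacsin C.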
# [1] = measured here: cell number channel AC50, cells fed with added oleic acid
# [2] = measured here: lipid fluorescence (Fed channel) AC50, cells fed with added oleic acid
Compound,cell number change [%],AC50 [1],AC50 [2]
Cc1cc(C(F)(F)F)c2c(N)c(C(=O)Nc3cc(C)on3)sc2n1,57.4,"0.058 µM [rising, full curve, poor fit]","0.731 µM [rising, partial curve]"
CC(C)=CC(=O)N1CCCC(N2CCN(c3ccccc3C)CC2)C1 (stereo not drawn),34.8,"29.1 µM [rising, single point]","0.58 µM [rising, single point]"
Cc1cccc(C(=O)OCC(=O)NN2C(=O)NC3(CCC(C)CC3)C2=O)c1O (stereo not drawn),-17.7,,"6.51 µM [falling, single point]"
CCCCN(CCO)CCCC,7.23,"0.651 µM [rising, partial curve]",
O=C(CCCOc1ccccc1)Nc1ncccn1,32.7,"29.1 µM [rising, single point]",
COC(=O)C1C(C(C)C)N(c2ccccc2)OC1(C)O (stereo not drawn),1.26,,
COc1ccc([C@H]2CC(=O)C=C(c3cccc(CO)c3)C2)cc1OC,-31.4,"11.6 µM [falling, partial curve, poor fit]",
O=C(NCCCN1CCOCC1)c1ccc(NS(=O)(=O)c2cccc([N+](=O)[O-])c2)cc1,-4.42,,
O=C(NCCc1ccccc1)C1CCN(C(=O)c2ccc([N+](=O)[O-])cc2)CC1,17.1,,"1.64 µM [falling, partial curve]"
O=C(c1ccco1)N1CCCC(c2nc3c(nnn3Cc3ccc(F)cc3)c(=O)[nH]2)C1 (stereo not drawn),8.7,,
CCCCC(=O)Nc1cccc(NC(=O)c2cccc([N+](=O)[O-])c2)c1,29.9,"0.103 µM [rising, full curve]","0.206 µM [rising, full curve, poor fit]"
COc1ccc(CNc2nc3nc(C)cc(C)n3n2)cc1OC,,"0.291 µM [rising, partial curve, poor fit]",
COCCOc1ccc(C(F)(F)F)cc1NC(=O)COC(=O)c1cc[n+]([O-])cc1,,"2.06 µM [rising, partial curve]",
Fc1ccc(Nc2ccc3ccccc3n2)c(F)c1,1.9,,"29.1 µM [falling, single point]"
CC(Oc1ccc(F)cc1)C(=O)Nc1sc2c(c1C(=O)NCc1cccnc1)CCCC2 (stereo not drawn),,,"29.1 µM [falling, partial curve, poor fit]"
CCCNC(=O)CN1C(=O)NC(CC)(c2ccc(F)cc2)C1=O (stereo not drawn),-4.5,,"0.58 µM [rising, single point]"
CCOC(=O)N1CCN(C(=O)C(=O)c2cn(CC(=O)N3CCCCCC3)c3ccccc23)CC1,7.35,,"29.1 µM [falling, partial curve, poor fit]"
CCn1c(SCC(=O)NC2CCCCC2)nnc1-c1cccnc1,-4.97,,"29.1 µM [rising, single point]"
CCN1C(=O)[C@H]2[C@@H](c3ccc(C)cc3)N3C(=O)N(c4cccc(Br)c4)C(=O)[C@@]3(CC)[C@H]2C1=O,-15.6,,"6.51 µM [rising, single point]"
COc1ccc(C)cc1C1=Nc2ccccc2C1(C)C,11.6,,"6.51 µM [rising, partial curve]"

Compound,cell number change [%],AC50 [1],AC50 [2]
COC(=O)C1=C(O)/C(=C\c2ccc(O)c(OC)c2)N=C1C,-1.4,"0.082 µM [falling, full curve, poor fit]","6.51 µM [falling, single point]"
N#Cc1ccc(C(=O)Nc2ccc([N+](=O)[O-])cc2)c(F)c1,-22.7,,"20.6 µM [falling, partial curve, poor fit]"
Cc1ccccc1C(=O)NCCNc1ccc([N+](=O)[O-])cc1,18.5,,
O=C1C=C(c2cccc(Cl)c2)C[C@@H](c2ccc(F)cc2)C1,-9.39,,"0.146 µM [rising, full curve, poor fit]"
Cc1nc(N)sc1N=Nc1c(C)n(C)n(-c2ccccc2)c1=O,13.4,,"3.66 µM [rising, partial curve, poor fit]"
OC(C#CCN1CCCCC1)(c1ccccc1)c1ccccc1,-21.3,,
Cc1cc(C(=O)Nc2ccc(Nc3ccccc3)cc2)ccc1[N+](=O)[O-],-50.4,"16.4 µM [falling, single point]",
O=C(NC(NC(=S)N1CCOCC1)C(Cl)(Cl)Cl)c1cccc2ccccc12 (stereo not drawn),-34,"7.31 µM [falling, partial curve, poor fit]","1.84 µM [falling, full curve, poor fit]"
CC(/C=N/NC(=O)c1cc(-c2ccncc2)nc2ccccc12)=C\c1ccco1,0.779,,
O=C(Nc1ccccc1F)Nc1ccccc1Br,103,"16.4 µM [rising, partial curve]",
COCCNC(=O)c1cc(-c2ccc3c(c2)OCO3)on1,9.08,,
CCCOc1ccc(/C=N/NC(=O)c2ccc(Cn3cc([N+](=O)[O-])cn3)o2)cc1,-3.46,"0.00517 µM [falling, full curve, poor fit]",
COc1ccc(S(=O)(=O)NCC(c2cccnc2)N2CCN(c3ccccc3)CC2)cc1C (stereo not drawn),,"2.31 µM [rising, partial curve]","23.1 µM [rising, partial curve]"
CN(C(=O)COC(=O)c1ccc[nH]c1=O)C1CCCCC1,-9.34,"0.731 µM [rising, single point]",
Cc1ccc(NC(=O)c2cccc(C(=O)Nc3ccc(C)c(C)c3)n2)cc1C,-2.37,"3.26 µM [rising, partial curve]","0.164 µM [falling, full curve, poor fit]"
COc1cccc(-c2ccc(C#N)c(=O)[nH]2)c1,,"6.51 µM [rising, single point]",
CCNc1nc(NCC)nc(SCCOC(=O)COc2ccc(Cl)cc2Cl)n1,16.5,,"29.1 µM [falling, single point]"
[O-][n+]1onc2c1CCC1N(O)C(c3ccccc3)CC21O (stereo not drawn),-3.85,,"0.0651 µM [falling, full curve]"
CCCOC(=O)C(C)n1cnc2sc(C)c(C)c2c1=O (stereo not drawn),46.4,,"0.58 µM [rising, single point]"

# Reformatted: two of the compounds above
Compound | cell number change [%] | AC50 [1] | AC50 [2]
OC(C#CCN1CCCCC1)(c1ccccc1)c1ccccc1 | -21.3 |  | 
Cc1cc(C(=O)Nc2ccc(Nc3ccccc3)cc2)ccc1[N+](=O)[O-] | -50.4 | 16.4 µM [falling, single point] | 
